Laboratory results taken from patent US11788145B2, “Epigeneiic silencing of NMT2” (PACYLEX PHARMACEUTICALS INC., priority 2015, dated 2023).
Some entries share one result that the patent states for a list of compounds.

Tested on: BL-2 (BL) cells
Assay: BL-2 Burkitt lymphoma subcutaneous xenograft model, tumour growth and tolerability
Conditions: CCI-002 at 50 and 60 mg/kg, doxorubicin 4 mg/kg or combination treatment

Row | Compound | body weight loss
1 | COc1cccc2c1C(=O)c1c(O)c3c(c(O)c1C2=O)C[C@@](O)(C(=O)CO)C[C@@H]3O[C@H]1C[C@H](N)[C@H](O)[C@H](C)O1 [doxorubicin, reference compound] | 10-30%
2 | Cc1c(N[S+](=O)([O-])c2c(Cl)cc(-c3ccnc(N4CCNCC4)c3)cc2Cl)c(CC(C)C)nn1C [CCI-002] | 10-30%
